From PubChem BioAssay AID212 (DTP/NCI, 2004)
The list shows only some results of the screen, not a fair sample: it gathers tests that were run many times, whatever their T/C, doses with no T/C, and many T/C values between a quarter and a half above the control. Further doses and runs are listed elsewhere. T/C: endpoint of the treated group in % of that of the vehicle group. Schedules are NCI's codes, taken here to give the interval after Q, in days (D) or hours (H), and the number of doses after X. Some doses were run more than once; the results are listed from low to high. Some T/C values are followed by the survivors on the day toxicity was checked, most often the fifth; where none is given, no animal had died by that day. Some doses have a count of surviving animals in place of a T/C: the source holds a T/C of zero for them, seemingly a mark for toxic or unscored doses. Counts of survivors are from the toxicity check (mostly the fifth day) where no day follows; animals may have died later. For survival time, this PubChem deposit counts one and a half times the control or more as active, and values a quarter to a half above the control carry no call in these data; other NCI protocols may use other cut-offs.

Test system: BDF1 mice, colon carcinoma 38 sc, T/C %
Assay: NCI In Vivo Anticancer Drug Screen. Data for tumor model Colon Carcinoma 38 (subcutaneous) in B6D2F1 (BDF1) mice
How it was run: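 Ratio of survival or tumor size, compound-treated animals relative to vehicle controls, in tumor-bearing mice.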

[1] = T/C endpoint: median tumor weight (est.), dose: 50.0 mg/kg/injection, schedule: Q07DX002 (ip), vehicle: saline, evaluated on day 20, higher T/C = larger tumour
[2] = T/C endpoint: median tumor weight (est.), dose: 25.0 mg/kg/injection, schedule: Q07DX002 (ip), vehicle: saline with Tween-80, evaluated on day 20, higher T/C = larger tumour
[3] = T/C endpoint: median tumor weight (est.), dose: 200.0 mg/kg/injection, schedule: Q07DX002 (ip), vehicle: saline with Tween-80, evaluated on day 20, higher T/C = larger tumour
[4] = T/C endpoint: median tumor weight (est.), dose: 800.0 mg/kg/injection, schedule: Q07DX002 (ip), vehicle: saline with Tween-80, higher T/C = larger tumour

## O=NN(CCCl)C(=O)NCCO
T/C endpoint: median tumor weight (est.), dose: 3.12 mg/kg/injection, schedule: Q07DX002 (ip), vehicle: water, evaluated on day 20, higher T/C = larger tumour
  T/C: 128 % of control
T/C endpoint: median tumor weight (est.), dose: 25.0 mg/kg/injection, schedule: Q07DX002 (ip), vehicle: water, higher T/C = larger tumour
  survivor count: 4 of 10 on day 20
T/C endpoint: median tumor weight (est.), dose: 50.0 mg/kg/injection, schedule: Q07DX002 (ip), vehicle: water, higher T/C = larger tumour
  survivor count: 0 of 10 on day 20
T/C endpoint: median tumor weight (est.), dose: 100.0 mg/kg/injection, schedule: Q07DX002 (ip), vehicle: water, higher T/C = larger tumour
  survivor count: 0 of 10 on day 20

## O=C1NC(O)CCN1C1OC(CO)C(O)C1O (stereo not given)
[1]
  T/C: 149 % of control
T/C endpoint: median tumor weight (est.), dose: 50.0 mg/kg/injection, schedule: Q07DX003 (ip), vehicle: saline, evaluated on day 20, higher T/C = larger tumour
  T/C: 126 % of control [9 of 10 alive]
T/C endpoint: median tumor weight (est.), dose: 800.0 mg/kg/injection, schedule: Q07DX003 (ip), vehicle: saline, evaluated on day 20, higher T/C = larger tumour
  T/C: 140 % of control

## CSc1cc(=O)n2c3ccccc3c3ccnc1c32
T/C endpoint: median tumor weight (est.), dose: 80.0 mg/kg/injection, schedule: Q07DX002 (ip), vehicle: saline with Tween-80, evaluated on day 20, higher T/C = larger tumour
  T/C: 125 % of control

## O=C1c2cccc3cc([N+](=O)[O-])cc(c23)C(=O)N1CCN1CCCC1
T/C endpoint: median tumor weight (est.), dose: 50.0 mg/kg/injection, schedule: Q07DX002 (ip), vehicle: saline with Tween-80, higher T/C = larger tumour
  survivor count: 0 of 10 on day 20
T/C endpoint: median tumor weight (est.), dose: 100.0 mg/kg/injection, schedule: Q07DX002 (ip), vehicle: saline with Tween-80, higher T/C = larger tumour
  survivor count: 0 of 10 on day 20

## CN(C)c1ccc(C(=C2C=CC(=[N+](C)C)C=C2)c2ccc(N(C)C)cc2)cc1 (tested in a mixture with another compound)
T/C endpoint: median tumor weight (est.), dose: 2.5 mg/kg/injection, schedule: Q07DX002 (ip), vehicle: saline with Tween-80, evaluated on day 20, higher T/C = larger tumour
  T/C: 135 % of control
T/C endpoint: median tumor weight (est.), dose: 10.0 mg/kg/injection, schedule: Q07DX002 (ip), vehicle: saline with Tween-80, higher T/C = larger tumour
  survivor count: 0 of 10 on day 20
T/C endpoint: median tumor weight (est.), dose: 20.0 mg/kg/injection, schedule: Q07DX002 (ip), vehicle: saline with Tween-80, higher T/C = larger tumour
  survivor count: 0 of 10 on day 20
T/C endpoint: median tumor weight (est.), dose: 40.0 mg/kg/injection, schedule: Q07DX002 (ip), vehicle: saline with Tween-80, higher T/C = larger tumour
  survivor count: 0 of 10 on day 20

## COc1cccc2c1C(=O)c1c(O)c3c(c(O)c1C2=O)C[C@@](O)(C(=O)CO)C[C@@H]3OC1CC(N)CC(C)O1 (stereo not given in full)
T/C endpoint: median tumor weight (est.), dose: 6.0 mg/kg/injection, schedule: Q07DX002 (ip), vehicle: water, higher T/C = larger tumour
  survivor count: 6 of 10 on day 20
T/C endpoint: median tumor weight (est.), dose: 12.0 mg/kg/injection, schedule: Q07DX002 (ip), vehicle: water, higher T/C = larger tumour
  survivor count: 0 of 10 on day 20

## CC1CCC(n2cnc3c(Cl)ncnc32)O1 (stereo not given)
T/C endpoint: median tumor weight (est.), dose: 500.0 mg/kg/injection, schedule: Q07DX002 (ip), vehicle: Klucel (hydroxypropylcellulose) (HPC), higher T/C = larger tumour
  survivor count: 5 of 10 on day 20
T/C endpoint: median tumor weight (est.), dose: 800.0 mg/kg/injection, schedule: Q07DX002 (ip), vehicle: Klucel (hydroxypropylcellulose) (HPC), higher T/C = larger tumour
  survivor count: 0 of 10 on day 20
T/C endpoint: median tumor weight (est.), dose: 1000.0 mg/kg/injection, schedule: Q07DX002 (ip), vehicle: Klucel (hydroxypropylcellulose) (HPC), higher T/C = larger tumour
  survivor count: 0 of 10 on day 20
T/C endpoint: median tumor weight (est.), dose: 2000.0 mg/kg/injection, schedule: Q07DX002 (ip), vehicle: Klucel (hydroxypropylcellulose) (HPC), higher T/C = larger tumour
  survivor count: 0 of 10 on day 20

## Nc1nc(-c2cccc3ccccc23)cc2ccccc12
T/C endpoint: median tumor weight (est.), dose: 12.5 mg/kg/injection, schedule: Q07DX002 (ip), vehicle: saline with Tween-80, evaluated on day 20, higher T/C = larger tumour
  T/C: 125 % of control
[2]
  T/C: 129 % of control
T/C endpoint: median tumor weight (est.), dose: 50.0 mg/kg/injection, schedule: Q07DX002 (ip), vehicle: saline with Tween-80, evaluated on day 20, higher T/C = larger tumour
  T/C: 145 % of control
[3]
  T/C: 126 % of control [9 of 10 alive on day 20]

## CCCCCCCCCCCC(=O)NC1CC(O[C@H]2C[C@](O)(C(=O)CO)Cc3c(O)c4c(c(O)c32)C(=O)c2c(OC)cccc2C4=O)OC(C)C1O (stereo not given in full)
T/C endpoint: median survival time, dose: 27.0 mg/kg/injection, schedule: Q07DX003 (iv), vehicle: saline, higher T/C = longer survival
  T/C: 145 % of control [8 of 10 alive on day 107]
T/C endpoint: median tumor weight (est.), dose: 112.5 mg/kg/injection, schedule: Q07DX002 (ip), vehicle: distilled water + Tween-80, higher T/C = larger tumour
  survivor count: 6 of 10 on day 20
T/C endpoint: median tumor weight (est.), dose: 225.0 mg/kg/injection, schedule: Q07DX002 (ip), vehicle: distilled water + Tween-80, higher T/C = larger tumour
  survivor count: 4 of 10 on day 20

## c1cnc2ncncc2n1
T/C endpoint: median tumor weight (est.), dose: 12.5 mg/kg/injection, schedule: Q07DX002 (ip), vehicle: saline, evaluated on day 20, higher T/C = larger tumour
  T/C: 140 % of control
T/C endpoint: median tumor weight (est.), dose: 25.0 mg/kg/injection, schedule: Q07DX002 (ip), vehicle: saline, evaluated on day 20, higher T/C = larger tumour
  T/C: 144 % of control
[1]
  T/C: 137 % of control

## C[Si](C)(C)OSc1ccccc1[N+](=O)[O-]
T/C endpoint: median tumor weight (est.), dose: 200.0 mg/kg/injection, schedule: Q07DX002 (ip), vehicle: Klucel (hydroxypropylcellulose) (HPC), evaluated on day 20, higher T/C = larger tumour
  T/C: 138 % of control
T/C endpoint: median tumor weight (est.), dose: 400.0 mg/kg/injection, schedule: Q07DX002 (ip), vehicle: Klucel (hydroxypropylcellulose) (HPC), evaluated on day 20, higher T/C = larger tumour
  T/C: 126 % of control

## COc1ccc2[nH]c3ccc4cc[n+](CCN5CCC(C6CCN(CC[n+]7ccc8ccc9[nH]c%10ccc(OC)cc%10c9c8c7)CC6)CC5)cc4c3c2c1
T/C endpoint: median tumor weight (est.), dose: 200.0 mg/kg/injection, schedule: Q07DX002 (ip), vehicle: Klucel (hydroxypropylcellulose) (HPC), higher T/C = larger tumour
  survivor count: 1 of 10 on day 20
T/C endpoint: median tumor weight (est.), dose: 400.0 mg/kg/injection, schedule: Q07DX002 (ip), vehicle: Klucel (hydroxypropylcellulose) (HPC), higher T/C = larger tumour
  survivor count: 0 of 10 on day 20

## CS(=O)(=O)c1ncc(Br)cn1
[2]
  T/C: 126 % of control

## Cc1cc(O)c(N=Nc2ccc(C(=O)O)cc2)cc1C
[4]
  survivor count: 1 of 10 on day 20

## O=C(O)C(O)C(O)C1[O][Sb][O]C1C(=O)O (stereo not given)
T/C endpoint: median tumor weight (est.), dose: 200.0 mg/kg/injection, schedule: Q07DX002 (ip), vehicle: saline, higher T/C = larger tumour
  survivor count: 0 of 10 on day 20

## N=[N+]=CC(=O)CCC(NC(=O)C(CCC(=O)C=[N+]=N)NC(=O)CCC(N)C(=O)O)C(=O)O (stereo not given)
T/C endpoint: median tumor weight (est.), dose: 100.0 mg/kg/injection, schedule: Q07DX003 (ip), vehicle: clinical formulation, higher T/C = larger tumour
  survivor count: 6 of 10
T/C endpoint: median tumor weight (est.), dose: 100.0 mg/kg/injection, schedule: Q07DX003 (ip), vehicle: water, higher T/C = larger tumour
  survivor count: 1 of 10

## COC(=O)Nc1ccc(Cc2ccc(NC(=O)OC)cc2)cc1
T/C endpoint: median tumor weight (est.), dose: 6.25 mg/kg/injection, schedule: Q07DX002 (ip), vehicle: saline with Tween-80, evaluated on day 20, higher T/C = larger tumour
  T/C: 125 % of control
[2]
  T/C: 126 % of control
[3]
  T/C: 69, 80, 95, 111 % of control
[4]
  survivor count: 3 of 10 on day 20
T/C endpoint: median tumor weight (est.), dose: 1600.0 mg/kg/injection, schedule: Q07DX002 (ip), vehicle: saline with Tween-80, higher T/C = larger tumour
  survivor count: 0 of 10 on day 20

## C=CCNc1ccc(C)cc1
T/C endpoint: median tumor weight (est.), dose: 6.25 mg/kg/injection, schedule: Q07DX002 (ip), vehicle: Klucel (hydroxypropylcellulose) (HPC), evaluated on day 20, higher T/C = larger tumour
  T/C: 135 % of control [9 of 10 alive on day 20]
